Test results as given in PubChem BioAssay AID248 (DTP/NCI, 2004).
The list is a part of this screen's results and no random one: it is rich in T/C values a quarter to a half above the control, in often repeated tests (any T/C) and in doses without a T/C. Further doses and runs are listed elsewhere. T/C gives the treated animals as a percentage of the vehicle group. Some doses have a count of surviving animals in place of a T/C: the source holds a T/C of zero for them, seemingly a mark for toxic or unscored doses. Some survivor counts are full or nearly so, which does not show that the dose was tolerated: the source hardly ever lists a survival T/C far under the control, and the zero likely stands for such cases as well. Counts of survivors are from the toxicity check (mostly the fifth day) where no day follows; animals may have died later. Schedule codes are those of the source, read here as Q, the interval in days (D) or hours (H), X, the number of doses. For survival time, the PubChem record calls one and a half times the control and up active, and a quarter to a half above the control has no call in these data; cut-offs in other NCI protocols can differ. Some T/C values carry the count of animals alive at the toxicity check (mostly the fifth day); where none is given, no animal had died by that day.

Tested on: L1210 leukemia ip in BDF1 mice, survival T/C
Assay: NCI In Vivo Anticancer Drug Screen. Data for tumor model L1210 Leukemia (intraperitoneal) in B6D2F1 (BDF1) mice
Conditions: T/C endpoint: mean survival time, higher T/C = longer survival
[1] = dose: 200.0 mg/kg/injection, schedule: Q01DX009 (ip), vehicle: saline
[2] = dose: 200.0 mg/kg/injection, schedule: Q04DX003 (ip), vehicle: Klucel (hydroxypropylcellulose) (HPC)
[3] = dose: 400.0 mg/kg/injection, schedule: Q04DX003 (ip), vehicle: Klucel (hydroxypropylcellulose) (HPC)
[4] = dose: 400.0 mg/kg/injection, schedule: Q01DX001 (ip), vehicle: saline
[5] = dose: 200.0 mg/kg/injection, schedule: Q01DX001 (ip), vehicle: saline

## C[CH2][Sn](/[CH]=C/C(C)(C)O)([CH2]C)[CH2]C
[1]
  survivor count: 1 of 3

## CC(C)=CCC(CCN(C)C)(C(N)=O)c1cccc2ccccc12 (configuration not stated)
dose: 100.0 mg/kg/injection, schedule: Q04DX003 (ip), vehicle: Klucel (hydroxypropylcellulose) (HPC)
  survivor count: 0 of 6
[2]
  survivor count: 0 of 6
[3]
  survivor count: 0 of 6

## c1ccc(C(C2=NCCN2)c2ccccc2)cc1
dose: 200.0 mg/kg/injection, schedule: Q01DX009 (ip), vehicle: Klucel (hydroxypropylcellulose) (HPC)
  survivor count: 0 of 6
[2]
  survivor count: 0 of 6
[3]
  survivor count: 0 of 6

## C(=C/c1ccnc(/C=C/c2ccccc2)c1)/c1ccccc1
dose: 50.0 mg/kg/injection, schedule: Q01DX009 (ip), vehicle: acetone
  survivor count: 6 of 6
dose: 400.0 mg/kg/injection, schedule: Q04DX003 (ip), vehicle: acetone
  survivor count: 6 of 6

## CCCCCCN(CCCCCC)CCCCCC
dose: 256.0 mg/kg/injection, schedule: Q01DX015 (ip), vehicle: carboxymethylcellulose (CMC)
  survivor count: 1 of 6

## Br/C=C\c1ccccc1
[1]
  survivor count: 6 of 6
dose: 400.0 mg/kg/injection, schedule: Q01DX009 (ip), vehicle: acetone
  survivor count: 0 of 6
dose: 400.0 mg/kg/injection, schedule: Q01DX009 (ip), vehicle: saline
  survivor count: 0 of 6

## O=C(N/N=C\c1ccc(N(CCCl)CCCl)cc1[N+](=O)[O-])c1cccnc1
[4]
  survivor count: 0 of 4

## CN=C(Nc1ccccc1)SC
[5]
  survivor count: 2 of 6
[4]
  survivor count: 0 of 6

## COc1cc(N(CCCl)CCCl)c(OC)cc1/C=N/NC(=O)CC(N)C(=O)O (configuration not stated)
dose: 18.75 mg/kg/injection, schedule: Q01DX009 (ip), vehicle: saline
  T/C: 143 % of control
dose: 50.0 mg/kg/injection, schedule: Q01DX009 (ip), vehicle: other
  T/C: 127 % of control
dose: 200.0 mg/kg/injection, schedule: Q01DX001 (ip), vehicle: carboxymethylcellulose (CMC)
  T/C: 129 % of control
dose: 200.0 mg/kg/injection, schedule: Q01DX009 (ip), vehicle: other
  T/C: 128 % of control [5 of 6 alive]
dose: 300.0 mg/kg/injection, schedule: Q01DX001 (ip), vehicle: saline
  T/C: 128 % of control
dose: 400.0 mg/kg/injection, schedule: Q01DX001 (ip), vehicle: carboxymethylcellulose (CMC)
  T/C: 138 % of control
dose: 400.0 mg/kg/injection, schedule: Q01DX009 (ip), vehicle: other
  survivor count: 0 of 6

## N#CC(O)C(Br)(Br)Br (configuration not stated)
dose: 40.0 mg/kg/injection, schedule: Q01DX001 (ip), vehicle: saline
  survivor count: 2 of 4
dose: 80.0 mg/kg/injection, schedule: Q01DX001 (ip), vehicle: saline
  survivor count: 0 of 4
dose: 100.0 mg/kg/injection, schedule: Q01DX001 (ip), vehicle: saline
  survivor count: 0 of 4
[5]
  survivor count: 0 of 4
[4]
  survivor count: 0 of 4

## O=S(=O)(Nc1ccccc1)c1ccc([As](=O)(O)O)cc1
[5]
  survivor count: 2 of 4
[4]
  survivor count: 2 of 4

## CCCCCCSC(=O)Nc1ccc(C)c(NC(=O)SCCCCCC)c1
dose: 400.0 mg/kg/injection, schedule: Q04DX003 (ip), vehicle: saline with Tween-80
  survivor count: 6 of 6

## O=[N+]([O-])c1ccc(Cl)c(O)c1
dose: 100.0 mg/kg/injection, schedule: Q01DX009 (ip), vehicle: carboxymethylcellulose (CMC)
  survivor count: 6 of 6
dose: 200.0 mg/kg/injection, schedule: Q01DX009 (ip), vehicle: carboxymethylcellulose (CMC)
  survivor count: 0 of 6
dose: 400.0 mg/kg/injection, schedule: Q01DX009 (ip), vehicle: carboxymethylcellulose (CMC)
  survivor count: 0 of 6

## CN(C)C(=O)c1ccc[n+](CC(=O)Nc2ccc(Cl)cc2)c1
dose: 200.0 mg/kg/injection, schedule: Q04DX003 (ip), vehicle: saline
  survivor count: 3 of 6
dose: 400.0 mg/kg/injection, schedule: Q04DX003 (ip), vehicle: saline
  survivor count: 0 of 6

## OCCN1CC1
dose: 1.56 mg/kg/injection, schedule: Q01DX009 (ip), vehicle: saline
  T/C: 135 % of control
